PubChem BioAssay AID1053208 – Peter MacCallum Cancer Centre | 2014
Screen: 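Synthetic lethal interactions between gene loss and doxorubicin in osteosarcoma cells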 (primary screen). Cell system: mouse osteosarcoma cells, early-passage culture from an engineered mouse model of fibroblastic bone tumour. Knock-down reagent: siRNA pool against mouse genes, 40 nM. Duration: about 120 h (48 h before drug, then 72 h with drug). Conditions: doxorubicin 100 nM for 72 h, roughly 30-40% inhibitory dose. Measured: 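Viability read as ATP luminescence after 72 h of 100 nM doxorubicin or none, duplicate wells averaged, scaled to non-targeting siRNA, then expressed as robust z-scores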. Scale: viability z-score with doxorubicin: higher = more viable cells under doxorubicin; viability z-score without drug: higher = more viable cells with knock-down alone. Rule for the call: 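a pool counts as active when its viability z-score with doxorubicin is -2 or below and its z-score without drug lies between -2 and 2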.
In all, the deposit lists about 17,000 reagents; this is a part drawn at random. 788 of all reagents (4.7%) count as active. 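Calls rest on z-score classes alone; an extra cut-off of viability at most 70% of control was not applied to them.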 Entries without a mark were called inactive. The numbers tell different reagents against one gene apart. Not all columns of the deposit are shown. Reagent sequences are not shown.

Snx1 | combined z-score class = no change with or without drug; viability z-score with doxorubicin = 1.24; viability z-score without drug = 0.51
Grwd1 | combined z-score class = no change with or without drug; viability z-score with doxorubicin = 0; viability z-score without drug = 0.51
Wnk2 | combined z-score class = no change with or without drug; viability z-score with doxorubicin = 0.67; viability z-score without drug = 0.34
Impg1 | combined z-score class = no change with or without drug; viability z-score with doxorubicin = 0.9; viability z-score without drug = -0.51
Or8k16 | combined z-score class = low cell count with and without drug; viability z-score with doxorubicin = -2.14; viability z-score without drug = -2.87
Vmn1r-ps103 | combined z-score class = high cell count with doxorubicin only; viability z-score with doxorubicin = 2.59; viability z-score without drug = 1.85
Ndufv1 | combined z-score class = no change with or without drug; viability z-score with doxorubicin = -1.57; viability z-score without drug = -1.35
Tmprss12 | combined z-score class = no change with or without drug; viability z-score with doxorubicin = -1.35; viability z-score without drug = -0.34
Abra | combined z-score class = no change with or without drug; viability z-score with doxorubicin = 1.57; viability z-score without drug = -0.17
Zfp472 | combined z-score class = no change with or without drug; viability z-score with doxorubicin = 0.34; viability z-score without drug = -0.17
Foxn1 | combined z-score class = no change with or without drug; viability z-score with doxorubicin = 1.12; viability z-score without drug = -0.51
Prr11 | combined z-score class = no change with or without drug; viability z-score with doxorubicin = -0.22; viability z-score without drug = -0.51
Klhdc7a | combined z-score class = no change with or without drug; viability z-score with doxorubicin = 0.22; viability z-score without drug = -1.01
Tprg1 | combined z-score class = no change with or without drug; viability z-score with doxorubicin = -1.57; viability z-score without drug = 0.51
Cdc42ep2 | combined z-score class = no change with or without drug; viability z-score with doxorubicin = 0.11; viability z-score without drug = 0.51
Sybu #1 | combined z-score class = low cell count without drug only; viability z-score with doxorubicin = -1.8; viability z-score without drug = -2.02
Sybu #2 | combined z-score class = no change with or without drug; viability z-score with doxorubicin = -0.45; viability z-score without drug = 0.34
Ebi3 | combined z-score class = no change with or without drug; viability z-score with doxorubicin = 0.22; viability z-score without drug = 1.18
BC035947 | combined z-score class = no change with or without drug; viability z-score with doxorubicin = 1.12; viability z-score without drug = 0.17

2 entries already listed, sorted by “viability z-score without drug”, highest first.
Snx1 | combined z-score class = no change with or without drug; viability z-score with doxorubicin = 1.24; viability z-score without drug = 0.51
Grwd1 | combined z-score class = no change with or without drug; viability z-score with doxorubicin = 0; viability z-score without drug = 0.51
